From PubChem BioAssay AID504834 (National Center for Advancing Translational Sciences (NCATS), 2011)
Hit rate of the full screen: of about 320,000 compounds, about 22,000 (6.9%) were called active. The shares of active, inactive and inconclusive entries below differ from those in the screen. Calls follow the shape of the dose curve; as a rule, active = well fitted inhibition curve with a large enough effect; inconclusive = small, poorly fitted or top-dose-only effect, or another doubt; inactive = no such curve, though single readings can be large or run the other way. Potencies beside an inconclusive call are fits to weak or partial responses and may not hold up.

Assay: Primary qHTS for delayed death inhibitors of the malarial parasite plastid, 96 hour incubation
Settings: P. falciparum luciferase reporter growth; series mostly up to 28.7 µM; activity change, negative = inhibition: at the top concentration
Outline: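 P. falciparum expressing integrated firefly luciferase, in erythrocytes at 2% hematocrit, 0.05% parasitemia, incubated with compounds 96 h at 37 C, 5% CO2. Growth inhibition read as loss of luminescence; two-generation exposure targets delayed-death apicoplast inhibitors.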
% is scaled to controls: 0 for no effect and ±100 for the full control effect; potency is read from the fitted curve at half-maximal effect.

Row | SMILES | Potency | activity change, negative = inhibition
1 | CC(=O)Nc1ccc(SC[C@H](C)CN2CC[C@H](C(C)(C)C)CCC2=O)cc1 | inconclusive: 2.94 µM [inhibitor, partial curve] | –
2 | COc1ccc(CNC(=O)CSc2nc3cccnc3s2)cc1 | – | inactive: 72%
3 | COc1ccc(NS(=O)(=O)c2cccc(NC(=O)c3ccc(Cl)nc3)c2)cc1 | inconclusive: 10.4 µM [inhibitor, single point] | –
4 | COc1ccc2nc(Nc3nc(CSc4nc5ccccc5[nH]4)cc(=O)[nH]3)nc(C)c2c1 | active: 10.4 µM | –
5 | COc1cc2c(cc1OC)C(=O)Cc1ccc3c(c1CN(C)CC2)OCO3 | inconclusive: 10.4 µM [inhibitor, single point] | –
6 | CSc1ccc(-c2sc(Nc3cccc4ccccc34)n[n+]2-c2ccccc2)cc1 | inconclusive: 2.08 µM [inhibitor, full curve, poor fit] | –
7 | CC1CCC(NC(=O)c2ccc3c(c2)OCO3)CC1 (stereo unspecified) | – | inactive: 1.46%
8 | CCOC(=O)Cc1csc(NC(=O)COc2ccc(N(C)S(=O)(=O)c3cccs3)cc2)n1 | inconclusive: 9.28 µM [inhibitor, partial curve] | –
9 | Cc1ccc(NC(=O)CNC2CCCCC2)cc1Cl | active: 0.738 µM | –
10 | O=C(Nc1ccccc1N1CCCC1)c1ccc(Cl)c(S(=O)(=O)N2CCOCC2)c1 | active: 8.28 µM | –
11 | CCOC(CCNC(=O)c1cn(CC(C)C)c(=O)c2c1c1ccccc1n2C)OCC | active: 0.522 µM | –
12 | N/C(=N\OC(=O)C(c1ccccc1)c1ccccc1)c1cccnc1 | active: 10.4 µM | –
13 | COc1ccc(/C=C(/NC(=O)c2cccs2)C(=O)Nc2ccc(C)cc2)cc1OC | inconclusive: 18.5 µM [inhibitor, single point] | –
14 | Cc1cccc(C)c1OCCCCCNCCO | inconclusive: 13.1 µM [inhibitor, partial curve, poor fit] | –
15 | CC(=O)c1cccc(NC(=S)NC(=O)c2cncc(Br)c2)c1 | – | inactive: 0%
16 | CN1C(=O)[C@@H](NC(=O)c2cc3ccccc3[nH]2)N=C(c2ccccc2)c2ccccc21 | active: 15.1 µM | –
17 | O=C(COc1ccccc1)N1CCN(c2nnc(-c3ccccc3)c3ccccc23)CC1 | active: 10.4 µM | –
18 | CCn1c(Cc2cccs2)nnc1SCC(=O)c1ccc(C)cc1 | inconclusive: 1.65 µM [inhibitor, partial curve, poor fit] | –
19 | O=C(CSc1nnc(CNc2ccc(F)cc2)o1)N1c2ccccc2Sc2ccccc21 | inconclusive: 11.7 µM [inhibitor, partial curve, poor fit] | –
20 | CCC(C)Nc1nc(OC)nc(N(C)C#N)n1 (stereo unspecified) | inconclusive: 18.5 µM [inhibitor, single point] | –
21 | C/C(=N/NC(=O)CNC(=O)/C=C/c1ccccc1)c1ccco1 | inconclusive: 14.7 µM [inhibitor, single point] | –
22 | O=C(NCc1nc2ccccc2[nH]1)C1=C[C@H](c2ccccc2)C[C@H](OCc2ccc(CO)cc2)O1 | active: 1.65 µM | –
23 | CCCOc1ccc(Cn2c(C)nc([N+](=O)[O-])c2SCC(O)COC)cc1[N+](=O)[O-] (stereo unspecified) | active: 10.4 µM | –

Row | SMILES | Potency | activity change, negative = inhibition
24 | Nc1nc(-c2ccccc2)[nH]c(=O)c1N=O | – | inactive: 0%
25 | O=c1c(-c2nc3ccccc3s2)cccn1Cc1ccc(Cl)cc1 | inconclusive: 16.5 µM [inhibitor, single point] | –
26 | Cc1cccc(Cn2c(C(=O)OC(C)C)cc3c2ccn3C)c1 | inconclusive: 3.29 µM [inhibitor, partial curve, poor fit] | –
27 | CCNC(=S)Nc1cccc(S(=O)(=O)NC2=NCCC2)c1 | inconclusive: 18.5 µM [inhibitor, single point] | –
28 | Cc1ccccc1-c1nnc(SCCC(=O)N2CCOCC2)o1 | inconclusive: 13.1 µM [inhibitor, single point] | –
29 | C=CCn1c(SCC(=O)c2[nH]c(C)c(C(=O)OCC)c2C)nc2scc(-c3ccc(OC)c(OC)c3)c2c1=O | inconclusive: 1.47 µM [inhibitor, full curve] | –
30 | O=C(N/N=C/c1ccco1)c1cccc(N2Cc3ccccc3C2)c1 | – | inactive: 68%
31 | COc1ccc(C(=O)Nc2ccc(C(=O)OCC(=O)c3ccccc3)cc2)cc1 | – | inactive: -10.4%
32 | Cc1ccc(C(=O)c2oc3ccccc3c2N)cc1 | – | inactive: 1.23%
33 | O=C(O)c1ccc(N/N=C/c2cc3cc4c(cc3nc2Cl)OCCO4)cc1 | – | inactive: 0%
34 | COc1ccc(-c2csc(NC(=O)c3cccc(N4C(=O)CCC4=O)c3)n2)cc1C | – | inactive: -18.3%
35 | CC(C)N(Cc1ccccc1)C(=O)COC(=O)c1ccc(O)cc1 | inconclusive: 7.38 µM [inhibitor, partial curve, poor fit] | –
36 | OC(CN1CCOCC1)C12CC3CC(CC(C3)C1)C2 (stereo unspecified) | inconclusive: 10.4 µM [inhibitor, single point] | –
37 | O=C(Nc1cccc(S(=O)(=O)N2CCCCC2)c1)c1ccccc1NS(=O)(=O)c1ccc(F)cc1 | active: 8.28 µM | –
38 | O=C(NCCN1CCN(Cc2ccccc2)CC1)c1ccc(CS(=O)(=O)c2ccc(Br)cc2)o1 | inconclusive: 2.08 µM [inhibitor, full curve] | –
39 | Cc1ccc(C)c(S(=O)(=O)N2CCCCC2CCNC(=O)C(=O)NC2CC2)c1 (stereo unspecified) | inconclusive: 9.28 µM [inhibitor, single point] | –
40 | COc1ccc(C(=O)CSc2ncn[nH]2)cc1OC | – | inactive: -1.23%
41 | O=C(C1CCOCC1)N1CCCC(N2CCN(c3ccc(F)cc3)CC2)C1 (stereo unspecified) | – | inactive: 9.21%
42 | CC(C)=NNc1nc2c(c(=O)n(C)c(=O)n2C)n1CCc1ccccc1 | inconclusive: 13.1 µM [inhibitor, single point] | –
43 | O=C(CCC1CCCN(C(=O)c2ccc3c(c2)OCO3)C1)NCc1ccc(F)c(F)c1 (stereo unspecified) | inconclusive: 13.1 µM [inhibitor, single point] | –
44 | CC1C(=O)C(C)C(c2cccc(Br)c2)NC1c1cccc(Br)c1 (stereo unspecified) | inconclusive: 18.5 µM [inhibitor, single point] | –
45 | Cc1ccc(C)c(N2CCN(C(=O)c3cc4ccccn4n3)CC2)c1 | inconclusive: 4.65 µM [inhibitor, partial curve, poor fit] | –
46 | CCOC(=O)C1(N(CC)CC)Sc2cc(C)ccc2NC1=O (stereo unspecified) | active: 5.86 µM | –

3 structures already listed, ordered by molar mass, rising:
Row | SMILES | Potency | activity change, negative = inhibition
28 | Cc1ccccc1-c1nnc(SCCC(=O)N2CCOCC2)o1 | inconclusive: 13.1 µM [inhibitor, single point] | –
39 | Cc1ccc(C)c(S(=O)(=O)N2CCCCC2CCNC(=O)C(=O)NC2CC2)c1 (stereo unspecified) | inconclusive: 9.28 µM [inhibitor, single point] | –
37 | O=C(Nc1cccc(S(=O)(=O)N2CCCCC2)c1)c1ccccc1NS(=O)(=O)c1ccc(F)cc1 | active: 8.28 µM | –
